This is an account of results in PubChem BioAssay AID504706 (National Center for Advancing Translational Sciences (NCATS), 2011).

Molecules are shown by their SMILES. Out of some 320,000 compounds screened, about 200 (0.062%) were called active. About 6% were inconclusive and are not listed. Calls come from the whole dose curve; as a rule, active = well fitted activation curve with a large enough effect; inconclusive = small, poorly fitted or top-dose-only effect; inactive = no such curve, though single readings can be large or run the other way. Only a part is listed here, and it is no random draw. Entries without a call were filed so in the source.
Potency is the fitted concentration of half-maximal effect.

A short description of this experiment: qHTS assay for re-activators of p53 using a Luc reporter. For activity change, positive = activation: % of control where 0% means no effect. Note: nearly all actives have a fitted effect of over 45% in size. To be noted: H1299 p53-A138V BP100-luciferase reporter, luminescence, 24 h; activity change, positive = activation: at 92.2 µM (top of the series). The source says: The p53 tumor suppressor plays a key role in suppression of tumorigenesis and in human carcinogenesis. It is frequently found inactivated in human cancers, mainly by point mutation. These point mutations are found in a wide variety of human cancers and a majority of them affect the DNA binding domain of the protein. The point mutations either alter native p53 conformation or abolish DNA contact. Additionally, cancer cells with p53 mutations are more resistant to chemo-radiation therapies. In order to find activators to reactivate this important protein, a cell-based screen for p53-dependent luciferase-reporter expression was developed. A p53-null H1299 lung cancer cell line was stably co-transfected with a temperature sensitive p53 mutant, p53-A138V, and a p53-responsive BP100-luciferase reporter. This cell model has previously been characterized in a gene chip profiling experiment for p53 activation. By lowering the culture temperature from 37 deg C (mutant p53 conformation) to 32 deg C (w.t. p53 conformation), a 30-60 fold increase in activation of luciferase activity is observed. At assay temperate, 37 deg C, basal reporter expression is very low and after the addition of detection reagent, a luminescent read-out is carried out. NIH Chemical Genomics Center [NCGC] NIH Molecular Libraries Probe Production Centers Network [MLPCN] MLPCN Grant: DA031088-01A1 Assay Provider (PI): Yi Sung, University of Michigan at Ann Arbor
5ul of 1000 cells per well are dispensed in all wells except column 4, into white solid-bottom TC-treated Kalypsys plates. The cells are kept in Opti-MEM and supplemented with 10% FBS and dispensed using a Multidrop (Thermo). Then using the Kalypsys pin-tool, 23nl of compounds are pinned. The compounds are starting concentration at 10mM, with 1:5 dilution, 4 points, and the control compound nocodazole is pinned in column 1 at 25mM, 1:3 dilution, in duplicate, 25mM nocodazole is pinned in column 2. Please note, all concentrations are working concentrations. 5ul of 1pM purified luciferase enzyme is dispensed using the Kalypsys dispenser in column 4. Plates are incubated for 24 hrs at 37 deg C, 5% CO2, and 95% humidity. Then 4ul of the detection reagent Amplite (ABD Bioquest) is added using the Kalypsys dispenser. Plates are incubated for 10 min at ambient room temperature and are then read on the ViewLux (Perkin Elmer) using a clear filter for a luminescent read-out.
(In general: In qHTS, concentration-response curves come from the screen itself.)
Regarding `CC(/C=N/NC(=O)c1ccncc1)=C\c1ccc(C(C)C)cc1`, the “activity change, positive = activation” value was inactive: 41.7%.

Turning to `O=C(NCc1ccco1)c1nc2ccccc2s1`, the activity change, positive = activation is 24%.

For `O=c1c2ccccc2oc2ccc(-c3ccc4cc[nH]c4c3)cc12`, the activity change, positive = activation was found to be 62.9%.

Take `O=[N+]([O-])c1ccc(NC(=S)N2CCCC2)cc1`: the “activity change, positive = activation” value is inactive: -37.5%.

As to `O=C(Nc1ccccn1)c1onc2c1CCCC2`, the activity change, positive = activation came out at 32.1%.

With `CCOC(=O)c1c(N2C(=O)C=CC2=O)sc(C)c1C`, the “activity change, positive = activation” value is inactive: -26.8%.

Regarding `Nc1c(C(=O)Nc2ccccc2)nnn1-c1ccc2c(c1)OCCO2`, the activity change, positive = activation is 58.1%.

On to `O=C1C2C3C=CC(C3)C2C(=O)N1c1ccc(-c2nc3ccccc3o2)cc1` (stereo not given), for which the activity change, positive = activation was 54.4%.

Take `COc1cccc(C(=O)O/N=C(\N)c2ccncc2)c1OC`: the activity change, positive = activation is 36.4%.

For the molecule `O=C(N/N=C/C(Cl)=C\c1ccccc1)c1cnccn1`, the Potency is active: 12.6 µM.

As for `CC12COC3(C(=O)NCCc4ccccc4)CC1CCC32C` (stereo not given), the activity change, positive = activation was 31.3%.

As to `CC(=O)Nc1cc2nn(-c3ccccc3)nc2cc1C`, the activity change, positive = activation turned out to be 42.5%.

`COc1ccc2c(c1)C(=NNC(=O)c1ccccn1)c1cc(OC)ccc1-2`: the “activity change, positive = activation” value is inactive: -49.7%.

For the molecule `Cc1cc(=O)oc2cc(NC(=O)c3cc(F)ccc3F)ccc12`, the activity change, positive = activation is 22.8%.

For the molecule `CCc1ccc(NCc2nc3ccccc3c(=O)[nH]2)cc1`, the activity change, positive = activation was 31.7%.

As for `CN(C)c1ccc(N=Cc2nc(-c3ccccc3)oc2OC(=O)c2cccc(Cl)c2)cc1`, the activity change, positive = activation was 80.3%.

As to `COc1ccccc1C1/C(=C(/O)c2ccccc2)C(=O)C(=O)N1CC(C)C` (stereo not given), the activity change, positive = activation was 45.2%.

With `N/C(=N\OC(=O)c1cccc(Cl)c1)c1ccccn1`, the activity change, positive = activation was determined as 63.4%.

As to `Cc1ccc(-c2nc3cc(C)ccc3o2)cc1`, the activity change, positive = activation is 51.8%.

For the molecule `Cc1ccn2c(c1)nc(=S)n2C(=O)c1ccccc1`, the activity change, positive = activation is 316%.

For the molecule `Oc1ccc(/C=N/Nc2ccc(C(F)(F)F)cn2)c(O)c1`, the Potency is active: 11.2 µM.

Take `Cc1cc(=O)n2[nH]c(C)c(-c3ccc(Cl)cc3)c2n1`: the “activity change, positive = activation” value was inactive: -23.3%.

For `O=C(Nc1ccc2c(c1)OCCO2)c1ccc(Br)s1`, the activity change, positive = activation is 132%.

`COc1ccc(C(=O)C(CN2CCOCC2)c2ccccc2)cc1F` (stereo not given): the “activity change, positive = activation” value was inactive: -48.5%.

`c1ccc(-c2n[nH]c(-c3ccccn3)n2)nc1`: the activity change, positive = activation stood at 51.9%.

For the molecule `O=C(Nc1nc2c(s1)C(=O)CCC2)c1ccccc1`, the activity change, positive = activation was 33.1%.

Consider `Cc1cc(C(=O)Nc2ccc(Br)cn2)sc1C`, for which the activity change, positive = activation is 71.7%.

For `O=C1c2cccc3c(O)ccc(c23)C(=O)N1c1ccc(Cl)cc1`, the activity change, positive = activation was found to be 72.7%.

As for `N#CC1=C(N)C(C#N)(C#N)[C@H](c2c(F)cccc2F)[C@H]2CC3(CC=C12)OCCO3`, the “activity change, positive = activation” value is inactive: -47.7%.

Consider `Cc1cccc(NC(=O)CSc2nc3nc4c(cc3c(=O)n2-c2ccccc2)CCCC4)c1`, for which the “activity change, positive = activation” value was inactive: -30.2%.

For `COc1cc(NC(=O)C2CC(c3ccccc3Cl)=NO2)cc(OC)c1OC` (stereo not given), the “activity change, positive = activation” value was inactive: -43.9%.

Consider `CC(C)NC(=S)N1CCN(S(C)(=O)=O)CC1`, for which the activity change, positive = activation amounted to 41.9%.

Take `Cc1ccc(CSc2nc3ccncc3[nH]2)cc1`: the activity change, positive = activation was 26.2%.

`Cc1ccc(/C(N)=N/OC(=O)c2ccco2)cc1`: the Potency is active: 17.8 µM.

With `O=[N+]([O-])c1c(NCCCO)cc(Sc2ccc(Cl)cc2)c2nonc12`, the “activity change, positive = activation” value was inactive: -39.5%.

For the molecule `Nc1c(S(=O)(=O)c2cccs2)c2nc3ccccc3nc2n1CC1CCCO1` (stereo not given), the activity change, positive = activation came out at 45.4%.

Consider `CS(=O)(=O)c1ccccc1C(=O)Nc1ccc(-c2nc3ccccc3[nH]2)cc1`, for which the “activity change, positive = activation” value is inactive: -31.5%.

As to `O=C(Nc1ccc2c(c1)CCC2)c1ccccc1`, the activity change, positive = activation was determined as 170%.

Turning to `COc1ccc(NC(=O)CN(C)CC(=O)Nc2ccccc2SC)cc1`, the activity change, positive = activation is -11.4%.

On to `CN(C)/C=N/c1cnc(C(=O)c2ccc(Cl)cc2)n1C`, for which the activity change, positive = activation is 30%.

Take `Cc1cc(C(=O)Nc2sc3c(c2C#N)CCCCC3)cs1`: the activity change, positive = activation is 31.9%.

In the case of `Cc1cs/c(=N\N=C\c2ccc(O)cc2)n1Cc1ccco1`, the activity change, positive = activation came to 68.7%.

In the case of `Cc1ccc(S(=O)(=O)N2CCOCC2)cc1C(=O)OCC(=O)N(Cc1ccccc1)C(C)C`, the “activity change, positive = activation” value is inactive: -18.7%.

Regarding `CCOC(=O)C1=CN(Cc2cccc(F)c2)S(=O)(=O)NC1c1ccc(F)c(Cl)c1` (stereo not given), the activity change, positive = activation turned out to be 46.3%.

Regarding `Cc1cccc(-n2ncc3c(N4CCCC4)ncnc32)c1`, the activity change, positive = activation stood at 45.8%.

As to `CCOC(=O)c1ccc(-c2nnc(-c3ccc(Cl)cc3Cl)o2)cc1`, the activity change, positive = activation was 34.3%.

Take `Cc1cc(C(=O)CSc2nc3ccccc3[nH]2)c(C)n1C`: the activity change, positive = activation came out at 21.6%.

`NC(=O)c1cc(Cl)ccc1OCC(=O)Nc1ccc2c(c1)OCO2`: the activity change, positive = activation was found to be 70%.

On to `Cc1ccc2nc(-c3ccc(NC(=O)CCN4C(=O)c5ccccc5C4=O)cc3)sc2c1`, for which the activity change, positive = activation came to 164%.

With `C=CCNc1ncnc2c1cnn2-c1ccc(Cl)cc1`, the activity change, positive = activation stood at 72.6%.

With `OCCN1CCN(c2ncnc3scc(-c4ccc(F)cc4)c23)CC1`, the “activity change, positive = activation” value is inactive: -35.7%.

For the molecule `CC(C)c1ccc2oc(-c3ccc(N)cc3)nc2c1`, the activity change, positive = activation is 60.2%.

In the case of `COc1cccc(-c2nnc(-c3ccco3)o2)c1`, the Potency is active: 39.8 µM.

On to `Cc1cc(C)nc(Nc2nc3ccccc3[nH]2)n1`, for which the activity change, positive = activation amounted to 36.4%.

As to `CC(C)(C)c1ccc(Cn2cnc(-c3ccc([N+](=O)[O-])cc3)c2)cc1`, the Potency is active: 28.2 µM.

For the molecule `COc1ccc(S(=O)(=O)N(C(C)=O)c2ccc(OC(C)=O)c3ccccc23)cc1[N+](=O)[O-]`, the “activity change, positive = activation” value is inactive: -33.6%.

For `O=c1c2ccccc2nnn1CSc1ccccc1`, the activity change, positive = activation worked out at 82.9%.

In the case of `O=C1N=C(N2CCCC2)S/C1=C\C=C\c1ccccc1`, the activity change, positive = activation worked out at 36.9%.

Regarding `c1ccc(CCCc2nc(-c3ccccn3)no2)cc1`, the activity change, positive = activation worked out at 38.5%.

As to `COc1ccccc1/C=C/C(=O)c1ccccc1`, the Potency was active: 31.6 µM.

With `CCc1nnc(N/N=C/c2cc(Br)c(O)cc2O)n1N`, the “activity change, positive = activation” value was inactive: -70.3%.

Regarding `Cn1c(N=Nc2ccccc2)nc2ccccc21`, the activity change, positive = activation was determined as 46.3%.

With `Cc1c(C(=O)Nc2ccc3c(c2)OCO3)oc2ccccc12`, the activity change, positive = activation came out at 31%.

In the case of `COc1ccc(-c2cc(-c3ccc(C)cc3)n[nH]2)c(O)c1`, the activity change, positive = activation stood at 52.8%.

Regarding `Cc1ccc(-c2nc(-c3cccnc3)no2)c(C)c1`, the activity change, positive = activation came out at 26.8%.

For the molecule `CN=c1scc(-c2cccs2)n1/N=C/c1ccc(O)c(O)c1O`, the activity change, positive = activation was 110%.

As for `COc1cc(NC(=S)NCc2ccco2)cc(OC)c1OC`, the “activity change, positive = activation” value was inactive: -47.4%.

On to `CCOCCCNC(=O)C1CCC(=O)N1CCc1ccccc1` (stereo not given), for which the activity change, positive = activation was found to be 37.5%.

On to `Fc1ccc(Nc2c(-c3ccco3)nc3ccccn23)cc1`, for which the activity change, positive = activation came out at 24.1%.

For `COc1ccc(OCc2cccc(C(=O)N3CCCC3)c2)cc1`, the activity change, positive = activation amounted to 44.6%.

As for `CC(C(=O)N1CCCCC1)N(C)CC(=O)Nc1cccc(F)c1` (stereo not given), the “activity change, positive = activation” value is inactive: -13.2%.

Turning to `O=[N+]([O-])c1ccc2nc(-c3ccccc3)[nH]c2c1`, the activity change, positive = activation was found to be 57.7%.

`CCC1CCCCN1S(=O)(=O)c1ccc(NC(=O)c2ccncc2)cc1` (stereo not given): the “activity change, positive = activation” value is inactive: -52.2%.

Take `Cn1c(N)c(C(=O)COC(=O)c2ccnc3ccccc23)c(=O)n(C)c1=O`: the activity change, positive = activation turned out to be 138%.

On to `Oc1c(Cl)cc(CN2CCOCC2)c2cccnc12`, for which the “activity change, positive = activation” value is inactive: -32.8%.
